{
  "source": "paper PMC6461108",
  "about": "(Chemical Science, 2019)",
  "assay": "general procedure: Fmoc solid-phase peptide synthesis; Rink Amide MBHA resin (loading capacity 0.36 mmol g-1) for S-peptide; DIC / Oxyma pure",
  "conditions": "whole synthesis, NMR, scale of the general procedure 0.1 mmol",
  "data": [
    {"substance": "H2N-[O -4-Cl-Bn-(3-HABA)]-Phe-[O-iPr-(2-HABA)]-Gly-CO 2H", "values": [
      {"measurement": "purity (crude or final not stated)", "result": "> 95", "unit": "%"}
    ]}
  ]
}
